The results in this text go back to the supplement of paper PMC7024190.

Counter-ions that a name gives are not always drawn. This is one part of the list. This data set is noisy: repeats of one test often differ as much as different tests do.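 The cells were human embryonic kidney cells carrying a Renilla luciferase gene, driven by the HSV-TK promoter, on a plasmid put in briefly by transfection. This is the first-round screen of about ten thousand compounds, looking for ones that raise reporter output.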

In the test the test system is HEK 293FT. Briefly: log relative Renilla luciferase luminescence (reporter expression vs reference, reference not stated) (log (base not stated)); higher = higher recombinant reporter expression. As to conditions: 10 µM; time after transfection 48 h.
For `CS(=O)(=O)Nc1ccc([N+](=O)[O-])cc1Oc1ccccc1` [nimesulide], the log is -0.202. The result for `OCc1ccccc1` [benzyl alcohol] reads 0.0336; that for `CNC(=C[N+](=O)[O-])NCCSCc1csc(CN(C)C)n1` [nizatidine], -1.75. Turning to `OC[C@H]1O[C@@H](OCCc2ccc(O)cc2)[C@H](O)[C@@H](O)[C@@H]1O` [salidroside], the log was -0.0135. For `CNCCC=C1c2ccccc2CCc2ccccc21` [nortriptyline hydrochloride] the value was -0.0656; for `CCc1c2c(nc3ccc(OC(=O)N4CCC(N5CCCCC5)CC4)cc13)-c1cc3c(c(=O)n1C2)COC(=O)[C@]3(O)CC` [irinotecan hydrochloride], -0.467.

Take `Cc1ccc2c(c1)CC[C@H]1CC(=O)CC[C@]21C` [13-methyl-4,4-bisnor-8,11,13-podocarpatrien-3-one]: the log was -0.0595. For `Cc1ccc(/C(=C\CN2CCCC2)c2ccccn2)cc1` [triprolidine hydrochloride] the value was -0.0569.

Consider `C[C@@H](O)[C@H](N)C(=O)O` [threonine (l)], for which the log stood at 0.042. The result for `CC(C)(O/N=C(\C(=O)N[C@@H]1C(=O)N2C(C(=O)[O-])=C(C[n+]3ccccc3)CS[C@H]12)c1csc(N)n1)C(=O)O` [ceftazidime] reads 0.0168. The result for `CN1CCN(C(c2ccccc2)c2ccc(Cl)cc2)CC1` (stereo not drawn) [chlorcyclizine hydrochloride] reads -0.125. For `Cc1ccc(C(C)C)cc2c(C)ccc1-2` [guaiazulene] the value was 0.102; for `O=C(N/N=C/c1ccc([N+](=O)[O-])o1)c1ccc(O)cc1` [nifuroxazide], -1.56; for `NC(=O)c1ncn([C@@H]2O[C@H](CO)[C@@H](O)[C@H]2O)c1O` [mizoribine], 0.127. In the case of `CC(=O)Nc1ccc(S(=O)(=O)Nc2ccc([N+](=O)[O-])cc2)cc1` [sulfanitran], the log was determined as 0.266. For `Cc1ccc(C(=O)Nc2ccc(S(=O)(=O)O)c3cc(S(=O)(=O)O)cc(S(=O)(=O)O)c23)cc1NC(=O)c1cccc(NC(=O)Nc2cccc(C(=O)Nc3cc(C(=O)Nc4ccc(S(=O)(=O)O)c5cc(S(=O)(=O)O)cc(S(=O)(=O)O)c45)ccc3C)c2)c1` [suramin hexasodium] the value was 0.0627; for `CCc1cc(C(N)=S)ccn1` [ethionamide], 0.201; for `CC(=O)Nc1c(I)c(NC(C)=O)c(I)c(C(=O)O)c1I` [diatrizoic acid], 0.0256. For `C#C[C@]1(O)CC[C@H]2[C@@H]3[C@H](C)CC4=C(CCC(=O)C4)[C@H]3CC[C@@]21C` [tibolone] the value was -0.114; for `S=C=Nc1ccc(N=C=S)cc1` [bitoscanate], -0.34; for `OC[C@@H](O)[C@@H](O)[C@H](O)[C@@H](O)CO` [sorbitol], -1.36. For `CCCCC(=O)O[C@]1(C(=O)CO)[C@@H](C)C[C@H]2[C@@H]3CCC4=CC(=O)C=C[C@]4(C)[C@@]3(F)[C@@H](O)C[C@@]21C` [betamethasone valerate] the value was -0.0458. As to `COc1cc(C(=O)N2CCOCC2)cc(OC)c1OC` [trimetozine], the log was -0.0585.

Consider `CC(=O)OCC(=O)[C@@]1(O)CC[C@H]2[C@@H]3CCC4=CC(=O)CC[C@]4(C)[C@H]3C(=O)C[C@@]21C` [cortisone acetate], for which the log was -0.31. For `CC(=O)OCC(=O)[C@@]1(O)CC[C@H]2[C@@H]3CCC4=CC(=O)C=C[C@]4(C)[C@@]3(F)[C@@H](O)C[C@@]21C` [isoflupredone acetate] the value was -0.11; for `COc1cc(O)c(C(C)=O)c(OC)c1` [xanthoxylin], 0.00663. For `CN(C)CCCOc1nn(Cc2ccccc2)c2ccccc12` [benzydamine hydrochloride] the value was 0.0146; for `CC(C)(O)CC[C@@H](O)[C@](C)(O)[C@H]1CC[C@@]2(O)C3=CC(=O)[C@@H]4C[C@@H](O)[C@@H](O)C[C@]4(C)[C@H]3CC[C@]12C` [crustecdysone], -0.658. Turning to `Cc1cc2nc3ccc(N(C)C)cc3[s+]c2cc1N` [tolonium chloride], the log was -0.265. For `Nc1ccc(S(=O)(=O)Nc2ccc(Cl)nn2)cc1` [sulfachlorpyridazine] the value was -0.0403.

On to `COC1=C(O)C(=O)c2c(cc3oc(C(C)=O)c(O)c3c2O)C1=O` [rhodocladonic acid], for which the log came out at 0.113. For `Oc1ccc(O)cc1` [hydroquinone], the log came to 0.0668. For the compound `COc1cc2nc(N3CCN(C(=O)C4CCCO4)CC3)nc(N)c2cc1OC` (stereo not drawn) [terazosin hydrochloride], the log was -0.0136. For `CC1CCC(NC(=O)N(CCCl)N=O)CC1` (stereo not drawn) [semustine] the value was 0.171. The result for `CC1=C2C(O)C(=O)OC3CC4C(C)(C)C(=O)C=C[C@]4(C)C(CC1)[C@]23C` (stereo partly drawn) [merogedunin] reads 0.0728. The result for `NS(=O)(=O)c1cc2c(cc1Cl)NCNS2(=O)=O` [hydrochlorothiazide] reads 0.203. Turning to `CC(=O)O[C@H]1CC[C@]2(C)[C@H]3CC=C4[C@@H]5CC(C)(C)CC[C@]5(C)CC[C@@]4(C)[C@]3(C)CC[C@H]2C1(C)C` [beta-amyrin acetate], the log amounted to 0.122. For `COc1cc(/C=C/C(=O)O)ccc1O` [ferulic acid], the log is -0.00567. The result for `CN(C)CCc1c[nH]c2ccc(C[C@H]3COC(=O)N3)cc12` [zolmitriptan] reads -0.00168; that for `CN(C)CCC=C1c2ccccc2C=Cc2ccccc21` [cyclobenzaprine hydrochloride], -0.000954; that for `O=c1[nH]c(=O)n([C@H]2C[C@H](O)[C@@H](CO)O2)cc1F` [floxuridine], -0.154. The result for `CNNCc1ccc(C(=O)NC(C)C)cc1` [procarbazine hydrochloride] reads -0.114. In the case of `Nc1ccc(C(=O)Oc2ccccc2)c(O)c1` [phenyl aminosalicylate], the log was -0.0187. The result for `C[n+]1cccc(C(=O)[O-])c1` [trigonelline] reads 0.00732; that for `O=C(O)c1cc(O)c2c(c1)[C@H]([C@H]1c3cc(C(=O)O)cc(O)c3C(=O)c3c(O[C@@H]4O[C@H](CO)[C@@H](O)[C@H](O)[C@H]4O)cccc31)c1cccc(O[C@@H]3O[C@H](CO)[C@@H](O)[C@H](O)[C@H]3O)c1C2=O` [sennoside a], 0.0437. For `CC(=O)Oc1cc(C(C)C)c(OCCN(C)C)cc1C` [moxisylyte hydrochoride], the log turned out to be 0.0889. Consider `CC(c1cc2ccccc2s1)N(O)C(N)=O` (stereo not drawn) [zileuton], for which the log came to 0.019. For `C[C@@H]1C(=O)O[C@H]2C[C@@]34[C@H]5C[C@@H](C(C)(C)C)[C@]36[C@@H](OC(=O)[C@@H]6O)O[C@@]4(C(=O)O5)[C@]21O` [ginkgolide a] the value was 0.00188; for `CC1=CC(=O)CC(C)(C)C1(O)/C=C/C(C)=C\C(=O)O` (mixture of isomers) [abscisic acid (cis,trans; +/-)], 0.0676; for `NC(=O)c1ncn([C@@H]2O[C@H](CO)[C@@H](O)[C@H]2O)c1N` [acadesine], 0.0931.

As to `CCC(=O)O[C@H]1[C@H](O[C@@H]2[C@@H](C)[C@H](O[C@H]3C[C@@](C)(OC)[C@@H](O)[C@H](C)O3)[C@@H](C)C(=O)O[C@H](CC)[C@@](C)(O)[C@H](O)[C@@H](C)C(=O)[C@H](C)C[C@@]2(C)O)O[C@H](C)C[C@@H]1N(C)C` [erythromycin estolate], the log was found to be 0.17. On to `Nc1ncnc2c1ncn2[C@@H]1O[C@H](COP(=O)(O)O)[C@@H](O)[C@H]1O` [adenosine phosphate], for which the log is -1.85. For `CC(=O)Oc1ccccc1C(=O)Nc1ncc([N+](=O)[O-])s1` [nitazoxanide] the value was -1.08; for `CCN(CC)CCOC(=O)C1(C2CCCCC2)CCCCC1` [dicyclomine hydrochloride], -0.00364; for `O=c1cc(-c2ccccc2)oc2c(O)c(O)ccc12` [7,8-dihydroxyflavone], -0.123.

In the case of `CCCCOCCOCCOCc1cc2c(cc1CCC)OCO2` [piperonyl butoxide], the log turned out to be 0.083. For `CC(N/C(=N\C#N)Nc1ccncc1)C(C)(C)C` (stereo not drawn) [pinacidil], the log was 0.124. Take `CC1(C)OC(=O)C(OCC2CC2)=C1c1ccc(S(C)(=O)=O)cc1` [firocoxib]: the log was 0.0404.

In the case of `CCCCC(O)c1ccccc1` (stereo not drawn) [fenipentol], the log was 0.0214.

On to `COc1ccc([C@@H]2CC(=O)c3c(O)cc(O)cc3O2)cc1O` [hesperetin], for which the log was 0.0647. The result for `CN(C)CCCN1c2ccccc2Sc2ccc(C(F)(F)F)cc21` [triflupromazine hydrochloride] reads -0.069; that for `COc1cc(C(=O)OCCCN2CCCN(CCCOC(=O)c3cc(OC)c(OC)c(OC)c3)CC2)cc(OC)c1OC` [dilazep dihydrochloride], 0.1; that for `CC[N+](C)(CC)CCOC(=O)C(O)(c1ccccc1)C1CCCCC1` (stereo not drawn) [oxyphenonium bromide], 0.0256. For `O=C1c2c(O)cccc2Cc2cccc(O)c21` [anthralin] the value was -0.175.

As to `CO[C@H]1C[C@H](O[C@H]2[C@H](C)O[C@@H](O[C@@H]3/C(C)=C/C[C@@H]4C[C@@H](C[C@]5(C=C[C@H](C)[C@@H](C6CCCCC6)O5)O4)OC(=O)[C@@H]4C=C(C)[C@@H](O)[C@H]5OC/C(=C\C=C\[C@@H]3C)[C@]54O)C[C@@H]2OC)O[C@@H](C)[C@@H]1O` [doramectin], the log was -0.113.

As to `O=S(=O)(O)c1cc(N=C=S)ccc1/C=C/c1ccc(N=C=S)cc1S(=O)(=O)O` [4,4'-diisothiocyanostilbene-2,2'-sufonic acid sodium salt], the log came to 0.0529. The result for `CC(=O)OCC(=O)[C@@]1(O)[C@@H](C)C[C@H]2[C@@H]3CCC4=CC(=O)C=C[C@]4(C)[C@@]3(F)[C@@H](O)C[C@@]21C` [betamethasone acetate] reads -0.0251. For `CC(=O)Oc1ccc2c(c1OC(C)=O)OCC1(O)Cc3c(cc(OC(C)=O)c(OC(C)=O)c3OC(C)=O)C21` (stereo not drawn) [haematoxylin pentaacetate] the value was 0.084.
